{
  "sequences": {"note": "Sequences of proteins named here, by UniProt entry; tags and fusion partners are left off.", "UniProt Q0JBA9, entry or part of it": "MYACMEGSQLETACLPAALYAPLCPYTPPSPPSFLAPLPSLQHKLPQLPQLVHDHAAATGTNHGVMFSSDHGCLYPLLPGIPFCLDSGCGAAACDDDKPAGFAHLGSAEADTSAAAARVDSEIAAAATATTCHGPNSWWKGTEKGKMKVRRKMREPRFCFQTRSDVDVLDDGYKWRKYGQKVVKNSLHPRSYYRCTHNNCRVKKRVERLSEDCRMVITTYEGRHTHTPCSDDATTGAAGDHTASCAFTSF"},
  "source": "paper PMC7819943",
  "about": "“Rice protein-binding microarrays: a tool to detect cis-acting elements near promoter regions in rice”",
  "note": "The list shows a part of the results.",
  "data": [
    {"target": "OsWRKY34 (Oryza sativa, UniProt Q0JBA9 1-250)", "assay": "protein-binding microarray (RPBM); PBS, 2% BSA, 51.3 ng/ul salmon testes DNA, 50 uM zinc acetate, 200 nM TF, 25 C, 1 h; high values mean tight binding", "conditions": "protein: recombinant; tags: N-terminal polyhistidine and DsRed monomer fusion (pET32a); label: CyDye5-dUTP incorporated in the synthesized complementary strand; 3' TTTTT single-stranded linker to array surface; dsDNA, one strand shown", "in_short": "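The binding signal is fluorescence intensity per array feature (arbitrary units). Readings came from an Axon 4000B scanner after a washed, 2% BSA-blocked, double-stranded custom Agilent array had been incubated for 1 h at 25 °C with 200 nM protein and 50 µM zinc acetate. The protein was a Ni–NTA-purified transcription factor fused N-terminally to polyhistidine and DsRed, expressed in E. coli BL21-CodonPlus.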", "values": [
      {"sequence": "GGTTGTTAGATTTGGGGCTAGGGTTAAAAGATATGCTAGGCGGAGTCACCTAGTGCAG", "binding signal": "8880 fluorescence intensity (a.u.)"},
      {"sequence": "AAATTAGTACTGATCTTGTCCCGCTCAAGGCCTCAAACCTCGGAGTCACCTAGTGCAG", "binding signal": "8270 fluorescence intensity (a.u.)"},
      {"sequence": "TTTTTGCGTTTCATACTAAAATCCTATGTTTTTTTTTTCGCGGAGTCACCTAGTGCAG", "binding signal": "9420 fluorescence intensity (a.u.)"},
      {"sequence": "TGCAGTGTGTGTGTGTGTGTGTGTGTCCATGTGAATATGTCGGAGTCACCTAGTGCAG", "binding signal": "10300 fluorescence intensity (a.u.)"},
      {"sequence": "TGCCAGTAACTTTGGTAGGTTTGTTTGTTTCTAGTTCTTTCGGAGTCACCTAGTGCAG", "binding signal": "12700 fluorescence intensity (a.u.)"},
      {"sequence": "CACAGTCCTACCCACCAACCTTAGGCTTGCTCCACCTTAGCGGAGTCACCTAGTGCAG", "binding signal": "8720 fluorescence intensity (a.u.)"},
      {"sequence": "GGCGCTGTTAGTAATACTGGAATATTGCCCTTGTCTTTGTCGGAGTCACCTAGTGCAG", "binding signal": "8570 fluorescence intensity (a.u.)"},
      {"sequence": "GGCATCCTCTATCCCGTCGCCACGTCCTCCGCCGCGGCGGCGGAGTCACCTAGTGCAG", "binding signal": "13700 fluorescence intensity (a.u.)"},
      {"sequence": "TATGGCCCTGTTTAGTTCCCATGCAAAAATTTTACACCATCGGAGTCACCTAGTGCAG", "binding signal": "9300 fluorescence intensity (a.u.)"},
      {"sequence": "TCGTTCATCTCATTCTTACCCCTATTCCTTCTACCAAACACGGAGTCACCTAGTGCAG", "binding signal": "8720 fluorescence intensity (a.u.)"},
      {"sequence": "CGGCCACTTCCACATCGCCATTAATGAGCCTGGAGCAAGCCGGAGTCACCTAGTGCAG", "binding signal": "9110 fluorescence intensity (a.u.)"},
      {"sequence": "TCAATCTTGGCCACTTGTATTCATCTCTAACTATTCTTTACGGAGTCACCTAGTGCAG", "binding signal": "8530 fluorescence intensity (a.u.)"},
      {"sequence": "GTCCACTAGCTCTCCACTCATCGTCACACGTTTTCGTACGCGGAGTCACCTAGTGCAG", "binding signal": "9470 fluorescence intensity (a.u.)"},
      {"sequence": "GAGAGGTGAGTTTATATTCCTTGGTTTCTAATTTGGCTGACGGAGTCACCTAGTGCAG", "binding signal": "10300 fluorescence intensity (a.u.)"},
      {"sequence": "TCGCATCCACACCTGTTTCCATCGTCCGTCACCACGTGCACGGAGTCACCTAGTGCAG", "binding signal": "9400 fluorescence intensity (a.u.)"},
      {"sequence": "GTAGTTTCCAGTTTCCTCGTACTCTCTCCCGGCAATAATTCGGAGTCACCTAGTGCAG", "binding signal": "14800 fluorescence intensity (a.u.)"},
      {"sequence": "GCTTCTCCATCTCGCATCTGCTGCCTCCTAATTTGCTTCGCGGAGTCACCTAGTGCAG", "binding signal": "10000 fluorescence intensity (a.u.)"},
      {"sequence": "TCTCTCTCTCTCTGCTTCTCTCACACTCTACTGCTGCTCACGGAGTCACCTAGTGCAG", "binding signal": "12000 fluorescence intensity (a.u.)"},
      {"sequence": "CCCCGACTCCCGTCTCCTCGCATTCGCTCACCGGTGAGCACGGAGTCACCTAGTGCAG", "binding signal": "8750 fluorescence intensity (a.u.)"},
      {"sequence": "GCATCCCCGTCTCATCCCTCCCCGCATGTCCCTCTACAGTCGGAGTCACCTAGTGCAG", "binding signal": "8110 fluorescence intensity (a.u.)"},
      {"sequence": "ATCCATTCCTTGATTTCTCTAGTGAGCTTCGCCGCATTTCCGGAGTCACCTAGTGCAG", "binding signal": "12800 fluorescence intensity (a.u.)"},
      {"sequence": "TCATTTTTTTTGAACCTGGTATGTTTGGGCTTTATTATAACGGAGTCACCTAGTGCAG", "binding signal": "9400 fluorescence intensity (a.u.)"},
      {"sequence": "TCATCGTTTGGCTTTTCCACTAATAAGCCAAAACAGTTTACGGAGTCACCTAGTGCAG", "binding signal": "8580 fluorescence intensity (a.u.)"},
      {"sequence": "CTCTGGCTCTGTCCCCTCGCGCCCTCGCAGCCATGGCCGTCGGAGTCACCTAGTGCAG", "binding signal": "8460 fluorescence intensity (a.u.)"},
      {"sequence": "TCTTCTTGTTCTTCTCCATCTCTAAGCACTTCTACCTAACCGGAGTCACCTAGTGCAG", "binding signal": "10100 fluorescence intensity (a.u.)"},
      {"sequence": "ATGTGGTTGCAAGGGCAGGGTAATGTTGAGCGCTGAATACCGGAGTCACCTAGTGCAG", "binding signal": "9110 fluorescence intensity (a.u.)"},
      {"sequence": "AATGGTGGTGGTGGAATCAATCAATCAATCGATCGATCAACGGAGTCACCTAGTGCAG", "binding signal": "9630 fluorescence intensity (a.u.)"},
      {"sequence": "ACGTCAATCCACGTCTCTTCGTGTCTAGGATCCACACGTCCGGAGTCACCTAGTGCAG", "binding signal": "10600 fluorescence intensity (a.u.)"},
      {"sequence": "TTGCTCCTGGACCGGACGACGACGGCGGTGGCGGCATTGACGGAGTCACCTAGTGCAG", "binding signal": "8330 fluorescence intensity (a.u.)"},
      {"sequence": "GCTAATATATTTTTTTACAAATTTGGTTTAAATTTGACCTCGGAGTCACCTAGTGCAG", "binding signal": "9080 fluorescence intensity (a.u.)"},
      {"sequence": "ATTATTTATTTTATTTGTGACATACTTTATTATCTACAGTCGGAGTCACCTAGTGCAG", "binding signal": "8080 fluorescence intensity (a.u.)"},
      {"sequence": "GCGTCGGATTTCATGCTCTCATGCCTCCACTTGGAACGCACGGAGTCACCTAGTGCAG", "binding signal": "11600 fluorescence intensity (a.u.)"},
      {"sequence": "ACCGCACCACCACCACCACCACCACCACCGCAACCGAACACGGAGTCACCTAGTGCAG", "binding signal": "8220 fluorescence intensity (a.u.)"},
      {"sequence": "ACGAAAACCACAACTATCACACAACACCATCAGCTAATCTCGGAGTCACCTAGTGCAG", "binding signal": "8830 fluorescence intensity (a.u.)"},
      {"sequence": "TTGGATTGCAGTGGGGCGGACGGCGGTGGGCGGGGCTTCTCGGAGTCACCTAGTGCAG", "binding signal": "27600 fluorescence intensity (a.u.)"},
      {"sequence": "TCATATCTTCTCTTCCATCTTATCCTCTCCCCACCACTCACGGAGTCACCTAGTGCAG", "binding signal": "8840 fluorescence intensity (a.u.)"},
      {"sequence": "TTTTCTTTCTTTTTCTTTTTTTTTATCGTTTTGTTCTTCTCGGAGTCACCTAGTGCAG", "binding signal": "10500 fluorescence intensity (a.u.)"},
      {"sequence": "AACGCAACCTGATTAGTTTAAGCCACCGGAATGCTGTTCGCGGAGTCACCTAGTGCAG", "binding signal": "8440 fluorescence intensity (a.u.)"},
      {"sequence": "AGCGGAAATCTATTCAACTCTGATCTTGTTTTTCTTCCCGCGGAGTCACCTAGTGCAG", "binding signal": "9330 fluorescence intensity (a.u.)"},
      {"sequence": "GCTGCCTCATTTGCACTTGGTCAATTTGCTGAACACTTGCCGGAGTCACCTAGTGCAG", "binding signal": "8820 fluorescence intensity (a.u.)"},
      {"sequence": "CCGCCCGAATTTCACTCCTTCCCTATATACGCAAGCTTCCCGGAGTCACCTAGTGCAG", "binding signal": "8970 fluorescence intensity (a.u.)"},
      {"sequence": "GATTACCTGATTACCTGATTACCTGTGTCACTGACAACTCCGGAGTCACCTAGTGCAG", "binding signal": "8310 fluorescence intensity (a.u.)"}
    ]}
  ]
}
